The list shows a part of the results.
Assays:
Test in all cases: log2 fold change, soluble protein after heating vs DMSO (PISA); higher = thermal stabilisation; K562 lysate, 10 uM; active = over 0.2 and 3.5 SD of the protein, either way, in both replicates (recomputed)
[1] = compound: C#Cc1cccc(Nc2ncnc3cc(OCCOC)c(OCCOC)cc23)c1 [erlotinib]
Procedure, shortened: (§1)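 The values are log-two fold changes in thermal stability compared with solvent controls and come from duplicates. They were obtained by TMTpro 16plex LC-MS/MS, with channel sums equalised, on the supernatant after 21,000xg for 90 min. That supernatant came from crude K562 extract at 1 mg/mL protein treated with 10 μM compound for 30 min, heated for 3 min across 48°C-58°C, pooled and brought to 0.5% NP-40 at 4°C.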

By UniProt entry, the sequences of proteins in these tests, tags left out. Where a name states a change or a piece, a line headed by the entry shows the natural chain unless it says otherwise.
UniProt Q86Y56: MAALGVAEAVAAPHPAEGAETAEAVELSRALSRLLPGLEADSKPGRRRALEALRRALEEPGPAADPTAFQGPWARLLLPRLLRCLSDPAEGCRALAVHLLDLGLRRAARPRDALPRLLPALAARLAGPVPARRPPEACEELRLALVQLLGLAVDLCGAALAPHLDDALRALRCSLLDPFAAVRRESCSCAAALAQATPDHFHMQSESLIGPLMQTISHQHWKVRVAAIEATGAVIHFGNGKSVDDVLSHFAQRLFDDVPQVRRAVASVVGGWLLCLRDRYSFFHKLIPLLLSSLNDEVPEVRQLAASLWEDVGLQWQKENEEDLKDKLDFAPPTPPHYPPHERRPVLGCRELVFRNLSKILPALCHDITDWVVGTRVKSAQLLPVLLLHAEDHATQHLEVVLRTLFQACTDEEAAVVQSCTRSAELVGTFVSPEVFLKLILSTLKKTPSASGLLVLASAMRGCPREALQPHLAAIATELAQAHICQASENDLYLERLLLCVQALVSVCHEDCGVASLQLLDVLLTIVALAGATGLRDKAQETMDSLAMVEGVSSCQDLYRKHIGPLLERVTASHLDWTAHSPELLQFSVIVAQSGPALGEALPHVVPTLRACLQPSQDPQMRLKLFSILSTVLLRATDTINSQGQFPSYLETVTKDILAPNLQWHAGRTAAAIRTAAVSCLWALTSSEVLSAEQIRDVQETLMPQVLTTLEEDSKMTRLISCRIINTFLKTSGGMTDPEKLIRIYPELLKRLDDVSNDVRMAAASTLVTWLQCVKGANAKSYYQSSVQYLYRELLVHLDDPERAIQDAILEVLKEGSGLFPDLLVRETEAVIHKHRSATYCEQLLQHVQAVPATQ
UniProt Q9Y394: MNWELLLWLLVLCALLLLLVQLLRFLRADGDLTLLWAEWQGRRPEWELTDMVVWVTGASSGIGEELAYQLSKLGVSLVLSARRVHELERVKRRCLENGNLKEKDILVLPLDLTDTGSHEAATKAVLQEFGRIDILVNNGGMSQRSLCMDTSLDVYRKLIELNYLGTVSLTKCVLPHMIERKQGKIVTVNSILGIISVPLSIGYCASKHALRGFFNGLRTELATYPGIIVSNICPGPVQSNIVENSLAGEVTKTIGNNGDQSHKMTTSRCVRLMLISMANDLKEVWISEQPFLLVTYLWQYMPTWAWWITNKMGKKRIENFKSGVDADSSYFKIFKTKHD
UniProt P25685, whole entry, looked up: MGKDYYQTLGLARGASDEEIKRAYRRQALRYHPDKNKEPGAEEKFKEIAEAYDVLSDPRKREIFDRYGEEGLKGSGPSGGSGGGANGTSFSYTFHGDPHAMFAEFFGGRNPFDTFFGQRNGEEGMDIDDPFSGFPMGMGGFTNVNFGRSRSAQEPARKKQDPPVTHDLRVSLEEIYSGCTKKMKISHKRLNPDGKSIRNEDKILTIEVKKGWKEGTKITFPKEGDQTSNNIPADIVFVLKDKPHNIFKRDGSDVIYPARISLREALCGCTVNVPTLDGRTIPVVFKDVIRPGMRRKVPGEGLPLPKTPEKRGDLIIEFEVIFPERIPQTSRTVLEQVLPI
UniProt Q8IXB1: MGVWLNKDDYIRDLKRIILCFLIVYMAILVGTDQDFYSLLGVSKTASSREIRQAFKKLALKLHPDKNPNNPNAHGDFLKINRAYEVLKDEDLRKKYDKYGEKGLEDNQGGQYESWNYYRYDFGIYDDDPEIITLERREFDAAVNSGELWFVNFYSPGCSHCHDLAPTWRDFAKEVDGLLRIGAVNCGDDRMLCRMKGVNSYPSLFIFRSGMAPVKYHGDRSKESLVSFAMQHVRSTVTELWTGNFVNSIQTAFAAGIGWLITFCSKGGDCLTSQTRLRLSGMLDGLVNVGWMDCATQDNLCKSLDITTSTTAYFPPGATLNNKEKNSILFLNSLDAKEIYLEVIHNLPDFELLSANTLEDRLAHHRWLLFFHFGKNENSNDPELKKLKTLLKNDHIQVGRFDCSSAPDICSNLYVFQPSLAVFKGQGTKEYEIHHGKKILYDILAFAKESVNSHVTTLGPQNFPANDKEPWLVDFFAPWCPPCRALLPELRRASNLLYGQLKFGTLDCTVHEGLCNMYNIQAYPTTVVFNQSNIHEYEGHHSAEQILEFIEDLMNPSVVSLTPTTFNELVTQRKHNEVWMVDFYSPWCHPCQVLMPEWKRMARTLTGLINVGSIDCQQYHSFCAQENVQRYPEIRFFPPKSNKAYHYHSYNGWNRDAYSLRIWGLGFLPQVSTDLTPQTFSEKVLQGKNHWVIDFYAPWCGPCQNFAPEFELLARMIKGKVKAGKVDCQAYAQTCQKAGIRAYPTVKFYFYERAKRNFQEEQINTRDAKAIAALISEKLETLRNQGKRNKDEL
UniProt Q08495: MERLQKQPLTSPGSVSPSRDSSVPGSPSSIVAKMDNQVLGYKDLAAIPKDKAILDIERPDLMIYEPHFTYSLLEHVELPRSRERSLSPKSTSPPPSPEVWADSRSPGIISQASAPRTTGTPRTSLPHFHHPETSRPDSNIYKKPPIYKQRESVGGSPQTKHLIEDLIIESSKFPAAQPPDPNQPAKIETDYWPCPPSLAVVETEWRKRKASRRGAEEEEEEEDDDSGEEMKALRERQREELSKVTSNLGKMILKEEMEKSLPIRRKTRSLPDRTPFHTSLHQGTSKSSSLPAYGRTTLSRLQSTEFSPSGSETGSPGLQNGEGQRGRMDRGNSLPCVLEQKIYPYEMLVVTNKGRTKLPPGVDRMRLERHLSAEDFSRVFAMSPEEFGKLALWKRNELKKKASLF
UniProt Q92620: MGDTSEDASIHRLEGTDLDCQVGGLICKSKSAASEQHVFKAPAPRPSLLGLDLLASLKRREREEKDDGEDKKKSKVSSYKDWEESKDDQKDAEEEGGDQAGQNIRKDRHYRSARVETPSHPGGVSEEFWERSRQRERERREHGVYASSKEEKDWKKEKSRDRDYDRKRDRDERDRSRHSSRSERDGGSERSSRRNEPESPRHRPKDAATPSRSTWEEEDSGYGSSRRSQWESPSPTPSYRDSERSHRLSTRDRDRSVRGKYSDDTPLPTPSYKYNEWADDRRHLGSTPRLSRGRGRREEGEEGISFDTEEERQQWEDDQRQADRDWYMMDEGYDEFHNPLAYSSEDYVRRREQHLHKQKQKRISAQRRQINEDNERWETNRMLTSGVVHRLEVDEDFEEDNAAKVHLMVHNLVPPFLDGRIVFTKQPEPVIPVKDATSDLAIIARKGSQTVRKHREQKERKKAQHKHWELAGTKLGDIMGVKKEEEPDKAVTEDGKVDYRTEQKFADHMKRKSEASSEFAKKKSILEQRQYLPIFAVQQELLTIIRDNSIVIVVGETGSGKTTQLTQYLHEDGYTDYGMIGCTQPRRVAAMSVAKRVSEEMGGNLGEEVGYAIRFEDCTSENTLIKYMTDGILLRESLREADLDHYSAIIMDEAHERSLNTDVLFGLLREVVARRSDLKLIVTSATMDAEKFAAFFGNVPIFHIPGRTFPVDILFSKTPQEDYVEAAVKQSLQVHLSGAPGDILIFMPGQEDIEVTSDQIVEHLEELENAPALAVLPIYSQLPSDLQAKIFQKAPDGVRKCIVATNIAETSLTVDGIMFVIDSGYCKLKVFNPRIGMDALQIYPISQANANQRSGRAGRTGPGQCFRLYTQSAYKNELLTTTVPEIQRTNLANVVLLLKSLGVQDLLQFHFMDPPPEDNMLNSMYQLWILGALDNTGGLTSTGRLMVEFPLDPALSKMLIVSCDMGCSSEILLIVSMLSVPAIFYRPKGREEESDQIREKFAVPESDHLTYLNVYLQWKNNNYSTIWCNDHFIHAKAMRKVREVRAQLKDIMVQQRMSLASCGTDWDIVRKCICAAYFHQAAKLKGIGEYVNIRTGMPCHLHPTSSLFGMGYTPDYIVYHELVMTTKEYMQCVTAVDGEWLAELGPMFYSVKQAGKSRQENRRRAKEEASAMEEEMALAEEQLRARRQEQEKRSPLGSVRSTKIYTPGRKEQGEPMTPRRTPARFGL
UniProt O60884: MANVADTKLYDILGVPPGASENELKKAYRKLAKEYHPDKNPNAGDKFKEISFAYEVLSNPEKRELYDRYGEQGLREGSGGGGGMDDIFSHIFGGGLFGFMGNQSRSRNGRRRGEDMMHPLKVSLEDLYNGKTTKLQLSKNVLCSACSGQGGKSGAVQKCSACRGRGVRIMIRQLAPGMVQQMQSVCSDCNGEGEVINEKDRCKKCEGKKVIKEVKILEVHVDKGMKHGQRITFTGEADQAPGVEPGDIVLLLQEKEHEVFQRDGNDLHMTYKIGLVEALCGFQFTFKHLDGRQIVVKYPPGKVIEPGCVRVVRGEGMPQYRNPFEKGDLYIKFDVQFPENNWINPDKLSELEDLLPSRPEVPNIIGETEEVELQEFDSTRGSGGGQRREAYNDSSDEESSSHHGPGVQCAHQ
UniProt Q14562: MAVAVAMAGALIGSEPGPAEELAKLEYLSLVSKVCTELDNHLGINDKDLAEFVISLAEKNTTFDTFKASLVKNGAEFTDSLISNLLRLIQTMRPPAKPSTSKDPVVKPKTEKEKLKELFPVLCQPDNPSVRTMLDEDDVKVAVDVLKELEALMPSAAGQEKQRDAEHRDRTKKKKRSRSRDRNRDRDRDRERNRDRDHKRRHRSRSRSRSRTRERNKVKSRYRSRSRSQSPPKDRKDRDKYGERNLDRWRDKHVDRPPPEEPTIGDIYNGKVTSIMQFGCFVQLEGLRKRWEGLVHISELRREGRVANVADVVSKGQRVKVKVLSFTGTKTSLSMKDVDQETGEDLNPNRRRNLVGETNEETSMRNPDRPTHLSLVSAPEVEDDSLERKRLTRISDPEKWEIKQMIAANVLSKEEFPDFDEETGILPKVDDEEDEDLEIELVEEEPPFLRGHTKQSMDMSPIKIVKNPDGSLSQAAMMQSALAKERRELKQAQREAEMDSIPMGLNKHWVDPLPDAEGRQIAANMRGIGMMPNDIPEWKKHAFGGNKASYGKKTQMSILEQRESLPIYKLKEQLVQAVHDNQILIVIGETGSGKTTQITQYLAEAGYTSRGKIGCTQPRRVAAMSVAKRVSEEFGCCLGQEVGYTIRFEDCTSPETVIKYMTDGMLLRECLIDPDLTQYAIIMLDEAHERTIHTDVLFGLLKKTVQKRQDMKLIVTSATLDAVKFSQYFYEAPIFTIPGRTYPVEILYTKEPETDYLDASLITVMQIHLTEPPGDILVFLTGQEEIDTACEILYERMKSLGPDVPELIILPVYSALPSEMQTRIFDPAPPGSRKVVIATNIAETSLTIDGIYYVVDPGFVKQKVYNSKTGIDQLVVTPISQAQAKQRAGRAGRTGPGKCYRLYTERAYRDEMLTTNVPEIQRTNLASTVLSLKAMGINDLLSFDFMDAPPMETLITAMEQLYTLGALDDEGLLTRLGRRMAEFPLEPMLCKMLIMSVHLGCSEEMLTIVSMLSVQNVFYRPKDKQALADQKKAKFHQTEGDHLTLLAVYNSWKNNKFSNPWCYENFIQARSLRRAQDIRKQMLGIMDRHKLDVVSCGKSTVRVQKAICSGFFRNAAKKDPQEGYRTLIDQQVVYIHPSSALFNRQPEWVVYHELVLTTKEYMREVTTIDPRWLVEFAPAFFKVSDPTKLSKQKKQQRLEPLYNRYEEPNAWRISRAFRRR
UniProt Q13574: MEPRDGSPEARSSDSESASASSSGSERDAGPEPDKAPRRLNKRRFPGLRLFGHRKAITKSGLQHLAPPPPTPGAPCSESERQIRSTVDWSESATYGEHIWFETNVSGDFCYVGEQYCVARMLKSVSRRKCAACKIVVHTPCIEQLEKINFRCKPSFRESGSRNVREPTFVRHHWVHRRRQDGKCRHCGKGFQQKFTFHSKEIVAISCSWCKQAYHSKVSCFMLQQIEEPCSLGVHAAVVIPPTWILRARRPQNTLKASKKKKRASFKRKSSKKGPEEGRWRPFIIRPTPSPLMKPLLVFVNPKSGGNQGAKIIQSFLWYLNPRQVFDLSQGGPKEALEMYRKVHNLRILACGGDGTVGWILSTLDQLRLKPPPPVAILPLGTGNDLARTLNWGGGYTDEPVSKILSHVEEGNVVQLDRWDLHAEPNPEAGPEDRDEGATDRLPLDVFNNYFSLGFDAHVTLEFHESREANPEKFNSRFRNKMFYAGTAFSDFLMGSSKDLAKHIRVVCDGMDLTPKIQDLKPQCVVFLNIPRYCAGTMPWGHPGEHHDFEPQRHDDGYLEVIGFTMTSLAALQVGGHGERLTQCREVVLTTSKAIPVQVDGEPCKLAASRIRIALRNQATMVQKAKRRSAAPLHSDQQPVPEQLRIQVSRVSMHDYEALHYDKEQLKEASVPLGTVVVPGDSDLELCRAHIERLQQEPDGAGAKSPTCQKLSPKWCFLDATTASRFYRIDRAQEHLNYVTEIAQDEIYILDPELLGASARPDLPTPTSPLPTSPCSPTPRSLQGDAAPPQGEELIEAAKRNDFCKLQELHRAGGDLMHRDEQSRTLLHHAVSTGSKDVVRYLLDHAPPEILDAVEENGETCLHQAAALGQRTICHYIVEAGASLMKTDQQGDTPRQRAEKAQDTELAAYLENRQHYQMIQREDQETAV

[2] = compound: C/C(=N\NC(=O)C1=CC(=CC=C1)S(=O)(=O)N2CCOCC2)/C3=C(C=CC(=C3)Cl)O
Procedure, shortened: as §1

[3] = compound: C1=CC(=CC=C1C2=NC3=C(N2)C=C(C=C3)C(=O)N)OC4=CC=C(C=C4)Cl
Procedure, shortened: as §1

[4] = compound: C1=CC2=C(C=CC(=C2)/C=C\3/C(=O)NC(=NCC4=CC=CS4)S3)N=C1
Procedure, shortened: as §1

[5] = compound: C1=CC2=NC=CN=C2C=C1/C=C/3\C(=O)NC(=O)S3
Procedure, shortened: as §1

[6] = compound: C1=CC=C(C=C1)C2=NC(=C(N2)C3=CC=NC=C3)C4=CC(=C(C=C4)Cl)O
Procedure, shortened: as §1

[7] = compound: C1=CC=C2C(=C1)C3=NNC4=CC=CC(=C43)C2=O
Procedure, shortened: as §1

[8] = compound: C1CCN(C1)C(=O)NC2=CC=CC(=C2)NC3=NC=C(C(=N3)NCCC4=CN=CN4)Br
Procedure, shortened: as §1

[9] = compound: C1CN(CCC1(CC2=CC=C(C=C2)Cl)N)C3=NC=NC4=C3C=CN4
Procedure, shortened: as §1

[10] = compound: C1COCCN1CCN2C3=CC=CC=C3N=C2NC(=O)C4=CC(=CC=C4)[N+](=O)[O-] [IRAK-1-4 Inhibitor I]
Procedure, shortened: as §1

[11] = compound: C=CC(=O)N1CCC[C@@H](n2nc(-c3ccc(Oc4ccccc4)cc3)c3c(N)ncnc32)C1 [ibrutinib]
Procedure, shortened: as §1

[12] = compound: CC(=O)c1cnc2ccc(-c3cc(Cl)c(O)c(Cl)c3)nc2c1N[C@H]1CC[C@H](CN(C)C)CC1
Procedure, shortened: as §1

[13] = compound: CC(C)(C)Cn1c(N)nc2ccc(-c3[nH]c(C(C)(C)C)nc3-c3ccc(F)cc3)nc21 [ralimetinib]
Procedure, shortened: as §1

[14] = compound: CC(C)(O)CC(=O)NCCn1ccc2ncnc(Nc3ccc(Oc4cccc(C(F)(F)F)c4)c(Cl)c3)c21
Procedure, shortened: as §1

[15] = compound: CC(C)C1=C2N=C(C=C(N2N=C1)NCC3=CC=CC=C3)NCCCCCCN
Procedure, shortened: as §1

[16] = compound: CC1=C(C(CC(=O)N1)C2=CC=C(C=C2)C(F)(F)F)C(=O)NC3=C(C=C4C(=C3)C=NN4)F
Procedure, shortened: as §1

[17] = compound: CC1=C(C2=C(C=C1)C(=O)C3=CC=CC=C3N2CCCN)C
Procedure, shortened: as §1

[18] = compound: CC1=C(C=C(C=C1)NC(=O)C2=CC(=CC=C2)C(C)(C)C#N)NC3=CC4=C(C=C3)N=CN(C4=O)C
Procedure, shortened: as §1

[19] = compound: CC1=C(C=C(C=C1)NC(=O)C2=CC(=CC=C2)N(C)C)NC(=O)C3=CC=C(C=C3)O
Procedure, shortened: as §1

[20] = compound: CC1=CC=C(C=C1)SC2=C3C=C(SC3=CN=C2)C(=O)N
Procedure, shortened: as §1

Measured: log2 fold change

DHX37 (UniProt Q8IY37)
inactive: [1] -0.106 | [2] 0.044 | [3] -0.083 | [4] 0.046 | [5] 0.212 | [6] -0.056 | [7] -0.043 | [8] -0.037 | [9] -0.029 | [10] 0.032 | [11] -0.056 | [12] 0.003 | [13] -0.053 | [14] -0.051 | [15] -0.031 | [16] -0.028 | [17] -0.151 | [18] -0.059 | [19] 0.046 | [20] 0.037

DNAAF5 (UniProt Q86Y56)
inactive: [1] -0.008 | [2] 0.041 | [3] -0.062 | [4] -0.057 | [5] 0.021 | [6] -0.016 | [7] -0.08 | [8] -0.003 | [9] 0.007 | [10] -0.039 | [11] -0.043 | [12] 0.032 | [13] 0.074 | [14] -0.049 | [15] -0.043 | [16] -0.002 | [17] -0.005 | [18] -0.035 | [19] 0.047 | [20] 0.061

DNPEP (UniProt Q9ULA0)
inactive: [1] -0.012 | [2] 0.101 | [3] 0.022 | [4] -0.012 | [5] 0.016 | [6] 0.013 | [7] -0.019 | [8] -0.009 | [9] 0.006 | [10] 0.034 | [11] -0.008 | [12] 0.004 | [13] -0.013 | [14] -0.022 | [15] 0.015 | [16] 0 | [17] -0.022 | [18] -0.02 | [19] -0.014 | [20] -0.011

DNPH1 (UniProt H0Y8X4)
inactive: [1] -0.014 | [2] 0.029 | [3] -0.001 | [4] 0.001 | [5] -0.013 | [6] -0.022 | [7] 0.06 | [8] 0.008 | [9] 0.014 | [10] -0.006 | [11] -0.029 | [12] 0.003 | [13] 0.037 | [14] 0.001 | [15] -0.015 | [16] 0.006 | [17] -0.032 | [18] -0.001 | [19] 0.01 | [20] 0.001

2 consecutive entries from above, quoted:
DNPEP (UniProt Q9ULA0)
inactive: [1] -0.012 | [2] 0.101 | [3] 0.022 | [4] -0.012 | [5] 0.016 | [6] 0.013 | [7] -0.019 | [8] -0.009 | [9] 0.006 | [10] 0.034 | [11] -0.008 | [12] 0.004 | [13] -0.013 | [14] -0.022 | [15] 0.015 | [16] 0 | [17] -0.022 | [18] -0.02 | [19] -0.014 | [20] -0.011

DNPH1 (UniProt H0Y8X4)
inactive: [1] -0.014 | [2] 0.029 | [3] -0.001 | [4] 0.001 | [5] -0.013 | [6] -0.022 | [7] 0.06 | [8] 0.008 | [9] 0.014 | [10] -0.006 | [11] -0.029 | [12] 0.003 | [13] 0.037 | [14] 0.001 | [15] -0.015 | [16] 0.006 | [17] -0.032 | [18] -0.001 | [19] 0.01 | [20] 0.001

Next part.

DNAJC9 (UniProt Q8WXX5)
inactive: [1] -0.015 | [2] 0.02 | [3] 0.012 | [4] 0 | [5] -0.01 | [6] 0.012 | [7] 0.056 | [8] 0.046 | [9] 0.004 | [10] -0.003 | [11] 0.013 | [12] 0.005 | [13] 0.023 | [14] 0.024 | [15] 0.017 | [16] 0.013 | [17] 0.005 | [18] 0.023 | [19] 0.005 | [20] 0.003

DHRS7 (UniProt Q9Y394)
inactive: [1] -0.014 | [2] 0.072 | [3] 0.012 | [4] 0.013 | [5] -0.011 | [6] -0.011 | [7] -0.04 | [8] -0.039 | [9] 0.019 | [10] 0.01 | [11] 0.045 | [12] -0.02 | [13] 0.059 | [14] -0.052 | [15] -0.037 | [16] 0.051 | [17] -0.07 | [18] 0.023 | [19] -0.056 | [20] 0.022

DNAJB1 (UniProt P25685)
inactive: [1] 0.013 | [2] -0.004 | [3] -0.005 | [4] 0.004 | [5] 0.025 | [6] 0.028 | [7] 0.017 | [8] 0.021 | [9] 0.035 | [10] 0.007 | [11] -0.029 | [12] 0.006 | [13] 0.009 | [14] -0.009 | [15] 0.007 | [16] 0.003 | [17] 0.041 | [18] 0.027 | [19] 0.017 | [20] -0.016

DNAJC10 (UniProt Q8IXB1)
inactive: [1] -0.03 | [2] 0.022 | [3] -0.016 | [4] 0.05 | [5] -0.006 | [6] -0.01 | [7] 0.012 | [8] -0.028 | [9] 0.01 | [10] -0.033 | [11] 0.059 | [12] 0.012 | [13] 0.001 | [14] 0.001 | [15] -0.017 | [16] 0.044 | [17] 0.002 | [18] -0.007 | [19] 0.007 | [20] -0.003

DLD (UniProt P09622)
inactive: [1] 0.014 | [2] 0 | [3] 0.022 | [4] -0.01 | [5] 0.025 | [6] 0.004 | [7] 0.007 | [8] 0.008 | [9] 0.006 | [10] 0.026 | [11] 0.003 | [12] 0.003 | [13] -0.006 | [14] -0.016 | [15] -0.013 | [16] -0.03 | [17] -0.006 | [18] 0.049 | [19] -0.007 | [20] 0.004

DMTN (UniProt Q08495)
inactive: [1] -0.002 | [2] -0.032 | [3] -0.018 | [4] 0.001 | [5] 0 | [6] 0.009 | [7] -0.022 | [8] 0.023 | [9] 0.015 | [10] -0.005 | [11] 0.048 | [12] 0.029 | [13] 0.001 | [14] 0.015 | [15] 0.03 | [16] -0.004 | [17] -0.01 | [18] 0.001 | [19] 0.013 | [20] -0.001

DHX38 (UniProt Q92620)
inactive: [1] -0.031 | [2] -0.061 | [3] 0.018 | [4] 0.036 | [5] -0.032 | [6] 0.021 | [7] -0.006 | [8] -0.008 | [9] 0.026 | [10] -0.025 | [11] -0.018 | [12] -0.036 | [13] 0.009 | [14] -0.006 | [15] -0.015 | [16] 0.011 | [17] -0.023 | [18] -0.038 | [19] 0.034 | [20] 0.016

DNAJA2 (UniProt O60884)
inactive: [1] 0.001 | [2] 0.012 | [3] -0.014 | [4] 0.008 | [5] -0.019 | [6] 0.013 | [7] 0.009 | [8] -0.03 | [9] -0.003 | [10] -0.015 | [11] -0.014 | [12] 0.005 | [13] 0.009 | [14] -0.006 | [15] 0.009 | [16] 0.022 | [17] -0.013 | [18] 0.068 | [19] 0.022 | [20] 0.012

DHX8 (UniProt Q14562)
inactive: [1] -0.012 | [2] 0.028 | [3] -0.063 | [4] -0.038 | [5] -0.058 | [6] -0.01 | [7] 0.027 | [8] -0.015 | [9] -0.062 | [10] -0.05 | [11] -0.002 | [12] 0.007 | [13] 0.015 | [14] 0.006 | [15] 0 | [16] 0.079 | [17] 0.011 | [18] -0.037 | [19] 0.035 | [20] 0.02

DLG1 isoform 2 (UniProt Q12959)
inactive: [1] -0.019 | [2] 0.014 | [3] 0.026 | [4] -0.039 | [5] 0.027 | [6] 0.004 | [7] -0.023 | [8] -0.02 | [9] 0.097 | [10] 0.026 | [11] -0.009 | [12] 0.02 | [13] 0.005 | [14] -0.017 | [15] -0.018 | [16] 0.059 | [17] 0.007 | [18] 0.021 | [19] 0.036 | [20] -0.023

DGKZ (UniProt Q13574)
inactive: [1] 0.053 | [2] -0.039 | [3] 0.057 | [4] 0.005 | [5] 0.14 | [6] 0.05 | [7] 0.019 | [8] -0.039 | [9] -0.044 | [10] -0.008 | [11] 0.011 | [12] 0.026 | [13] 0.016 | [14] -0.041 | [15] 0.014 | [16] 0 | [17] -0.038 | [18] 0.059 | [19] 0.009 | [20] -0.02

DNAJC12 (UniProt Q9UKB3)
inactive: [1] -0.03 | [2] -0.057 | [3] 0.024 | [4] -0.013 | [5] 0 | [6] -0.005 | [7] 0.039 | [8] -0.006 | [9] -0.001 | [10] -0.005 | [11] 0.015 | [12] -0.012 | [13] -0.009 | [14] -0.006 | [15] 0.03 | [16] 0.034 | [17] -0.036 | [18] 0.025 | [19] -0.007 | [20] -0.066
